# According to PubChem BioAssay AID2685 (National Center for Advancing Translational Sciences (NCATS), 2010):
# The other results are listed elsewhere or left out. The main result of the screen is listed elsewhere. These columns were measured beside it and carry no call. Compounds called inactive in the main read-out are mostly missing here. Words in brackets tell the shape of the fitted curve; partial curves, single points and poor fits give uncertain potencies.
# Assay: qHTS Assay for Lipid Storage Modulators in Drosophila S3 Cells;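 on cell number change: cells counted by Cell Tracker Red CMTPX staining in the red channel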
# Settings: BODIPY lipid droplet fluorescence, 18-24 h; for cell number change: measured here: cell count max response, cells fed with added oleic acid
# Outline: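 Laser-scanning cytometry quantifies lipid droplet accumulation (500–530 nm total intensity; droplet/cell object ratio) in oleic acid-fed (400 uM added) Drosophila S3 cells treated with a concentration series. 20 uM Triacsin C defined 100% inhibition.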
# [1] = measured here: lipid fluorescence (Fed channel) AC50, cells fed with added oleic acid
# [2] = measured here: cell number channel AC50, cells fed with added oleic acid
Structure (SMILES),cell number change,AC50 [1],AC50 [2]
O=C(CNC(=O)c1cccs1)N/N=C/c1ccccc1[N+](=O)[O-],-20%,"6.51 µM [falling, single point]",
Cc1ccc(OC(C)C(=O)Nc2ccccc2C(=O)N2CCN(C)CC2)cc1 (stereo not given),-10.5%,"29.1 µM [falling, single point]",
CCN(CC(=O)Nc1ccc(S(=O)(=O)N2CCCC2)cc1)Cc1ccccc1,-19.6%,,
CCOC(=O)N1CCN(CC(=O)Nc2c(C(=O)OC)[nH]c3ccc(Cl)cc23)CC1,-36.6%,"29.1 µM [falling, single point]","13 µM [falling, partial curve, poor fit]"
Cc1cccc(NC(=O)c2ccccc2OCC(=O)N2CCCC2)c1C,50.6%,"0.82 µM [rising, full curve, poor fit]","16.4 µM [rising, partial curve, poor fit]"
Cc1occc1-c1nnc(SCC(=O)NCCc2ccccc2)o1,,"0.0731 µM [rising, partial curve, poor fit]",
COC(=O)c1ccc(COc2ccc3c(C)c(C)c(=O)oc3c2C)o1,21%,"9.2 µM [rising, partial curve, poor fit]",
COc1cccc(C(=O)CN(C(=O)c2ccc(Cl)c(Cl)c2)N2C(=O)c3ccccc3C2=O)c1,-23.2%,"0.651 µM [rising, full curve, poor fit]",
C=CCNc1nc(C)nc(OC)n1,-23.6%,,
CS(=O)c1ccccc1O (stereo not given),-12.6%,"0.146 µM [falling, full curve, poor fit]","0.164 µM [falling, full curve, poor fit]"
CN(Cc1cc([N+](=O)[O-])ccc1Cl)C(=O)C[n+]1ccccc1,,"0.411 µM [rising, partial curve, poor fit]",
O=C1[C@H]2[C@@H](c3ccc(F)cc3)N3C(=O)N(c4cccc(F)c4)C(=O)[C@@]3(Cc3ccc(Cl)cc3)[C@H]2C(=O)N1C1CCCCC1,-31.9%,,"3.26 µM [falling, full curve, poor fit]"
CCOc1cc(/C=N/NC(=O)C2CCCC2)ccc1O,,"29.1 µM [falling, single point]",
Cc1ccc(NC(=S)N(CCN2CCCCC2)Cc2ccco2)cc1C,86.3%,"0.58 µM [rising, single point]","16.4 µM [rising, partial curve]"
CCOc1ccc2[nH]c(C(=O)N/N=C/c3cc(OC)c(OC)c(OC)c3)cc2c1,-19.1%,"25.9 µM [falling, single point]",
CC1CCN(C(=O)c2[nH]cnc2C(=O)N[C@@H](C)c2ccccc2)CC1,6.02%,"6.51 µM [rising, partial curve]",
CC(NC(=O)C1CC=CCC1C(=O)O)C1CC2CCC1C2 (stereo not given),-12.2%,,
COc1ccc(C(=O)N2CCN(C(C)=O)CC2)cc1S(=O)(=O)NCc1ccc(Cl)cc1,1.59%,"2.31 µM [rising, single point]",
COc1ccc(Cl)cc1C(=O)Nc1ccc(NC(=O)C(C)C)cc1,11.3%,,

Structure (SMILES),cell number change,AC50 [1],AC50 [2]
O=C(Nc1cccnc1)c1ccccc1NS(=O)(=O)c1ccc(F)cc1,-116%,"29.1 µM [falling, single point]","20.6 µM [falling, single point]"
O=C(NCCCn1ccnc1)/C(=C/c1ccc(F)cc1)NC(=O)c1ccccc1,-23.1%,,
CCc1ccc(S(=O)(=O)Nc2cc(SCC(=O)O)c(O)c3ccccc23)cc1,-46.1%,"25.9 µM [falling, partial curve]","18.4 µM [falling, single point]"
CCN(CC)CCOC(=O)c1ccc(N/C=C(/C#N)c2nc(-c3ccc(OC)cc3)cs2)cc1,-50.4%,,"29.1 µM [falling, single point]"
CCN(c1ccccc1)S(=O)(=O)c1ccc(C(=O)NCc2ccccn2)cc1,-6.79%,"2.91 µM [falling, partial curve]",
CC(=O)Nc1ccc(NC(=O)CSc2nccn2Cc2ccccc2)cc1,3.23%,"0.00411 µM [rising, full curve, poor fit]",
CSc1ncc(CN2CCCC(C(=O)c3ccc(C(C)(C)C)cc3)C2)cn1 (stereo not given),-2.29%,"0.103 µM [falling, full curve, poor fit]",
O=C1CC2(CCN(C(=O)c3ccccc3[N+](=O)[O-])CC2)Oc2ccccc21,2.77%,"0.731 µM [falling, single point]",
c1ccc(Cn2ccnc2-c2ccco2)cc1,-23.8%,,"1.84 µM [rising, partial curve]"
CCN(C(=O)COC(=O)c1c2c(nc3ccccc13)/C(=C/c1ccccc1)CC(C)C2)C1CCS(=O)(=O)C1 (stereo not given),,"23.1 µM [falling, single point]","0.00461 µM [falling, full curve, poor fit]"
O=C(Nc1ccccc1N1CCCC1)c1cccc(-c2cc3ccccc3oc2=O)c1,3.5%,"0.231 µM [rising, full curve, poor fit]",
Cc1c(Cl)cccc1NC(=O)CCCN1C(=O)c2cccnc2C1=O,13%,"6.51 µM [rising, single point]",
COc1ccc2sc(N(CCCN(C)C)C(=O)c3ccc(S(=O)(=O)N(C)Cc4ccccc4)cc3)nc2c1,32.5%,"29.1 µM [rising, single point]","29.1 µM [rising, single point]"
CCOC(Cn1ccc(=O)[nH]c1=O)OCC,,"0.291 µM [rising, full curve, poor fit]",
CCOC(=O)N/N=C/c1ccc(F)cc1,17%,"6.51 µM [rising, partial curve, poor fit]","7.31 µM [rising, partial curve, poor fit]"
Cc1ccccc1-c1nc(CS(=O)(=O)CC(=O)NC2CCCCC2C)c(C)o1 (stereo not given),23.2%,"29.1 µM [rising, single point]",
CCCCn1c(N)c(N(CC(C)C)C(=O)Cn2c(=O)oc3ccccc32)c(=O)[nH]c1=O,10%,,
CC(C)CNC(=O)c1cc2nc3c(c(C(F)(F)F)n2n1)CCc1ccccc1-3,-0.53%,,
Cc1ccc(NC(=O)CN(C)C(=O)c2cccc(S(=O)(=O)NCc3cccs3)c2)cc1,-4.05%,"0.116 µM [falling, full curve, poor fit]",

Structure (SMILES),cell number change,AC50 [1],AC50 [2]
CCN(C(=O)CSc1ncccc1C(=O)OC(C)C)c1cccc(C)c1,1.19%,,
CN(C)/C=C1\N=C(c2ccc(Cl)cc2Cl)OC1=O,,"6.51 µM [rising, partial curve]","0.366 µM [rising, partial curve, poor fit]"
CCCN1CCN(C(=O)c2cc3c(s2)-c2ccccc2S(=O)(=O)C3)CC1,7.59%,,
Cc1ccc(-c2nnn(CC(=O)N(CCCO)C(C(=O)NC3CCCC3)c3ccc(Cl)cc3)n2)o1 (stereo not given),3.95%,,
COc1ccc(/C=C/C(=O)NC(=S)NNC(=O)Cc2cccs2)cc1,53.9%,"29.1 µM [rising, single point]","16.4 µM [rising, single point]"
CCCC1(c2ccccc2)NC(=O)N(CC(=O)Nc2cc(OC)cc(OC)c2)C1=O (stereo not given),-0.952%,,
COc1ccc(CNC(=O)c2c(-c3cc(Cl)c(OC)c(Cl)c3)noc2C)cc1,52%,"2.31 µM [rising, full curve]","2.31 µM [rising, full curve]"
COc1ccc(O[C@H]2C=C[C@@H](c3ccccc3)O[C@@H]2CO/N=C/C[C@@H]2C=C[C@H](OC(C)=O)[C@@H](COC(C)=O)O2)cc1,8.65%,"6.51 µM [rising, partial curve]","1.84 µM [rising, partial curve, poor fit]"
CN1CCC(N(C)C(=O)NC2CCCCC2)CC1,-41.4%,"1.3 µM [falling, full curve]","0.411 µM [falling, partial curve]"
CCOc1ccc(CCNC(=O)COC(=O)c2ccc(S(C)(=O)=O)cc2)cc1OCC,-46.3%,"18.4 µM [falling, partial curve]","29.1 µM [falling, single point]"
COc1ccc(N(CC(=O)NCc2ccc(Cl)cc2)S(=O)(=O)c2c(C)n[nH]c2C)cc1,9.16%,"29.1 µM [rising, single point]",
CC(NCc1ccc2c(c1)OCO2)C(=O)NC1CCCc2ccccc21 (stereo not given),57%,"6.51 µM [rising, single point]","8.2 µM [rising, partial curve]"
Cc1ccc2oc(-c3ccco3)cc(=O)c2c1,-0.894%,"0.259 µM [rising, partial curve, poor fit]",
COC(=O)c1nn(-c2ccccc2)c(=O)cc1Oc1ccccc1,41.4%,,"32.6 µM [rising, single point]"
CC(C)c1ccc(/C=N/NC(=O)C(=O)NCCCN2CCOCC2)cc1,,"6.51 µM [falling, single point]",
COC(=O)COc1ccc2oc(=O)cc(C)c2c1,,"18.4 µM [falling, single point]",
O=C(CN(c1ccccc1)S(=O)(=O)c1ccc(F)cc1)NC1CCCCCC1,16.5%,,
Cc1cc(C)n2nc(C(=O)OCC(=O)N(CC(C)C)CC(C)C)nc2n1,4.58%,"6.31 µM [rising, single point]",
COc1ccc(OCC(=O)OCC(=O)NC2CC2)cc1,1.74%,"0.116 µM [falling, full curve, poor fit]",

# Shown with bars between the fields: part of the list above.
Structure (SMILES) | cell number change | AC50 [1] | AC50 [2]
Cc1ccc2oc(-c3ccco3)cc(=O)c2c1 | -0.894% | 0.259 µM [rising, partial curve, poor fit] | 
COC(=O)c1nn(-c2ccccc2)c(=O)cc1Oc1ccccc1 | 41.4% |  | 32.6 µM [rising, single point]
CC(C)c1ccc(/C=N/NC(=O)C(=O)NCCCN2CCOCC2)cc1 |  | 6.51 µM [falling, single point] | 
COC(=O)COc1ccc2oc(=O)cc(C)c2c1 |  | 18.4 µM [falling, single point] | 
O=C(CN(c1ccccc1)S(=O)(=O)c1ccc(F)cc1)NC1CCCCCC1 | 16.5% |  | 
